Source: PubChem BioAssay AID504467 (National Center for Advancing Translational Sciences (NCATS), 2011)
In all, about 330,000 compounds went through this assay and about 7,700 (2.3%) were called active. Inconclusive results, whose numbers are uncertain, are shown with a selection of clear calls. Calls come from the whole dose curve; as a rule, active = well fitted inhibition curve with a large enough effect; inconclusive = small, poorly fitted or top-dose-only effect, or effect the other way; inactive = flat fitted curve, though single readings scatter. Where the call is inconclusive, the potency comes from a doubtful curve fit.

assay: qHTS screen for small molecules that inhibit ELG1-dependent DNA repair in human embryonic kidney (HEK293T) cells expressing luciferase-tagged ELG1; conditions: HEK293T ELG1-luciferase reporter, luminescence, 16 h, DNA damage induced by 5-fluorouridine; series mostly up to 46.1 µM; note: nearly all actives have a fitted effect of over 55% in size
Method in brief: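 Overnight (16 hr) co-exposure of 2,000 cells/well to 5-fluorouridine and compound at 37 °C preceded detection. Luciferase was quantified via ONE-Glo luminescence; loss of signal denotes inhibition.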
Potency is the fitted concentration of half-maximal effect.

SMILES | Potency
CCN(CC(=O)Nc1c(F)cccc1F)C(=O)c1ccc(NC(=O)CC2SC(N3CCCC3)=NC2=O)cc1 (stereo not drawn) | inconclusive: 29.1 µM [activator, single point]
C=CCN(c1cccc(C(F)(F)F)c1)S(=O)(=O)c1cccc(C(=O)OCC(=O)NCCC)c1 | inactive
CC(C)OC(=O)Nc1ccc2c(c1)N(C(=O)N1CCN(C)CC1)c1ccccc1CC2 | inconclusive: 16.4 µM [activator, partial curve]
COc1ccc(Cl)cc1C(=O)NC(=S)Nc1ccccc1N1CCOCC1 | inactive
Cc1ccc(SCCC(=O)OCC(=O)Nc2ccc(C(N)=O)cc2)cc1 | inactive
CCCn1nc(C(=O)Nc2ccc(N3CCOCC3)cc2)c2ccccc2c1=O | inconclusive: 29.1 µM [activator, partial curve, poor fit]
COc1ccc(-c2cc(C(=O)N3CCN(c4ccc(F)cc4)CC3)no2)cc1OC | inactive
O=C(NCC(=O)N(Cc1cccs1)C(C(=O)NC1CCCCC1)c1ccco1)c1ccco1 (stereo not drawn) | inconclusive: 20.6 µM [inhibitor, single point]
O=C(O)c1ccc(-c2nc3ccccc3[nH]2)cc1 | inactive
CCOC(=O)c1c(NC(=O)c2ccc(S(=O)(=O)N(C)CC3CCCO3)cc2)sc2c1CC(C)(C)NC2(C)C (stereo not drawn) | inconclusive: 29.1 µM [inhibitor, partial curve, poor fit]
O=S(=O)(c1ccccc1F)N1CCC(c2nc3ccccc3[nH]2)CC1 | inconclusive: 29.1 µM [inhibitor, single point]
C/C(=N\NC(=S)Nc1ccccc1C)c1cc2ccccc2o1 | inconclusive: 23.1 µM [inhibitor, partial curve, poor fit]
CN(C)S(=O)(=O)c1ccc2c(c1)C(=NO)c1cc(S(=O)(=O)N(C)C)ccc1-2 | inconclusive: 5.8 µM [inhibitor, full curve]
Cc1sc2ccc3sccc3c2[n+]1C | inconclusive: 29.1 µM [inhibitor, single point]
COc1ccc(CCNC(=O)CC(c2ccccc2)c2cccc(C)c2O)cc1OC (stereo not drawn) | inconclusive: 23.1 µM [inhibitor, single point]
CCOc1ccc(-c2nnc(-c3ccco3)o2)cc1OCC | inconclusive: 8.2 µM [activator, partial curve]
O=C(CN(Cc1ccccc1)S(=O)(=O)c1ccc(F)cc1)NCc1ccccn1 | inactive
CN(CCc1ccccn1)C(=O)CCC1CCCN(C(=O)c2c3c(nn2C)CCCC3)C1 (stereo not drawn) | inconclusive: 18.3 µM [inhibitor, partial curve, poor fit]

For convenience, some entries already given.
SMILES | Potency
Cc1ccc(SCCC(=O)OCC(=O)Nc2ccc(C(N)=O)cc2)cc1 | inactive
CCCn1nc(C(=O)Nc2ccc(N3CCOCC3)cc2)c2ccccc2c1=O | inconclusive: 29.1 µM [activator, partial curve, poor fit]
